The same purity stands for every peptide and may come from a single statement.
Assay: general procedure: Fmoc solid-phase peptide synthesis; 2-Chlorotrityl chloride resin; HBTU, HOBT, DIPEA
Conditions: whole synthesis, scale 0.04 mmol

Q: What does the source list for “2,2',2''-(10-(2-(((S)-3-((3-(2-(((2S,3S)-1-(((3S,6S)-6-(((2H-1,2,3-triazol-4-yl)methyl)carbamoyl)-4-oxo-1,2,3,4,6,7-hexahydroazepino[3,2,1-hi]indol-3-yl)amino)-3-methyl-1-oxopentan-2-yl)amino)-2-oxoethyl)benzyl)amino)-1-carboxy-3-oxopropyl)amino)-2-oxoethyl)-1,4,7,10-tetraazacyclododecane-1,4,7-triyl)triacetic acid”?
A: final purity (method not given): 98%; isolated mass: 11 mg; isolated yield: 25%

Q: For “2,2',2''-(10-(2-(((S)-3-(((S)-3-((3-(2-(((2S,3S)-1-(((3S,6S)-6-(((2H-1,2,3-triazol-4-yl)methyl)carbamoyl)-4-oxo-1,2,3,4,6,7-hexahydroazepino[3,2,1-hi]indol-3-yl)amino)-3-methyl-1-oxopentan-2-yl)amino)-2-oxoethyl)benzyl)amino)-1-carboxy-3-oxopropyl)amino)-1-carboxy-3-oxopropyl)amino)-2-oxoethyl)-1,4,7,10-tetraazacyclododecane-1,4,7-triyl)triacetic acid”, which “final purity (method not given)” value is on record?
A: 98%

Q: And the isolated mass?
A: 12 mg

Q: What about the isolated yield of the same substance?
A: 25%

Q: With “2,2',2''-(10-(2-((8-(((S)-3-(((2S,3S)-1-(((3S,6S)-6-(((2H-1,2,3-triazol-4-yl)methyl)carbamoyl)-4-oxo-1,2,3,4,6,7-hexahydroazepino[3,2,1-hi]indol-3-yl)amino)-3-methyl-1-oxopentan-2-yl)amino)-1-carboxy-3-oxopropyl)amino)-8-oxooctyl)amino)-2-oxoethyl)-1,4,7,10-tetraazacyclododecane-1,4,7-triyl)triacetic acid” as the substance, how does the “final purity (method not given)” value read?
A: 98%

Q: And the isolated mass?
A: 7.1 mg

Q: What about the isolated yield of the same substance?
A: 16%

Source: article PMC9374377 (The Journal of Clinical Investigation, 2022)
